Reference: patent US20200222474A1, “COMPOSITIONS AND METHODS FOR INCREASING PHYTOCHEMICAL BIOAVAILABLITY AND BIOACTIVITY” (North Carolina State University, priority 2017, published 2020)
The source gives many values for each of these; only a part stands here.

Tested on: L. acidophilus NCFM
Assay: RNA-seq transcriptional analysis of L. acidophilus NCFM growing on plant glycosides
Type: cell-based, Lactobacillus acidophilus
[1] = LBA0160 Anaerobic ribonucleoside triphosphate reductase, COG F
[2] = LBA0197 Oligopeptide binding protein, COG E
[3] = LBA0198 Peptide binding protein, COG E
[4] = LBA0225 6-p-beta-glucosidase, COG G
[5] = LBA0227 Celiohiose-specific PTS IIC, COG G
[6] = LBA0228 Transcriptional regulator, COG G
[7] = LBA0455 Mannose-specific PTS system component IIC, COG G
[8] = LBA0456 Mannose-specific PTS system component IID, COG G
[9] = LBA0491 Cellobiose-specific PTS IIC, COG G
[10] = LBA0503 ABC transporter permease, COG G
[11] = LBA0606 PTS system arbutin-like IIBC component, COG G
[12] = LBA0609 PTS enzyme II ABC component, COG G
[13] = LBA0680 Glycogen branching enzyme, COG G
[14] = LBA0681 Glucose-1-phosphate adenylyltransferase, COG G
[15] = LBA0682 Glucose-1-phosphate adenylyltransferase, COG G
[16] = LBA0683 Glycogen synthase, COG G
[17] = LBA0685 Glycogen phosphorylase, COG G
[18] = LBA0686 Amylopullulanase, COG G
[19] = LBA0687 Phosphoglucomutase, COG G
[20] = LBA0724 Transcription antiterminator, COG G
[21] = LBA0726 Phospho-beta-galactosidase II, COG G
[22] = LBA0874 Phospho-beta-galactosidase I, COG G
[23] = LBA0875 Transcriptional regulator, COG G
[24] = LBA0876 Cellobiose-specific PTS IIC, COG G
[25] = LBA0877 Cellobiose-specific PTS IIA, COG G
[26] = LBA0986 Galactose mutarotase related ensyme, COG G
[27] = LBA1102 Transmembrane protein, COG G
[28] = LBA1400 Oligopeptide ABC transporter substrate binding protein, COG E
[29] = LBA1433 Dihydroxyacetone kinase, COG G
[30] = LBA1434 Dihydroxyacetone kinase, COG G

## OCc1ccccc1O[C@@H]1O[C@H](CO)[C@@H](O)[C@H](O)[C@H]1O [Salicin]
LBA0146 PTS system HA, COG G
  Log2 differential normalized TPM ratio compared to glucose: 1.6
  Log2 differential normalized TPM ratio compared to lactose: 0.1
  Transcripts per million (rpm): 25.6 rpm
[1]
  Log2 differential normalized TPM ratio compared to glucose: 1.7
  Log2 differential normalized TPM ratio compared to lactose: 0.7
  Transcripts per million (rpm): 560.3 rpm
[2]
  Log2 differential normalized TPM ratio compared to glucose: 1
  Log2 differential normalized TPM ratio compared to lactose: 3.2
  Transcripts per million (rpm): 134.5 rpm
[3]
  Log2 differential normalized TPM ratio compared to glucose: 0
  Log2 differential normalized TPM ratio compared to lactose: 3
  Transcripts per million (rpm): 43.2 rpm
[4]
  Log2 differential normalized TPM ratio compared to glucose: −0.1
  Log2 differential normalized TPM ratio compared to lactose: 0.2
  Transcripts per million (rpm): 25.6 rpm
[5]
  Log2 differential normalized TPM ratio compared to glucose: 0.9
  Log2 differential normalized TPM ratio compared to lactose: 0.6
  Transcripts per million (rpm): 6.9 rpm
[6]
  Log2 differential normalized TPM ratio compared to glucose: 0.1
  Log2 differential normalized TPM ratio compared to lactose: 0
  Transcripts per million (rpm): 15.6 rpm
[7]
  Log2 differential normalized TPM ratio compared to glucose: 1.8
  Log2 differential normalized TPM ratio compared to lactose: 0.7
  Transcripts per million (rpm): 1007.8 rpm
[8]
  Log2 differential normalized TPM ratio compared to glucose: 1.8
  Log2 differential normalized TPM ratio compared to lactose: 0.7
  Transcripts per million (rpm): 1723.5 rpm
[9]
  Log2 differential normalized TPM ratio compared to glucose: 1.5
  Log2 differential normalized TPM ratio compared to lactose: −0.6
  Transcripts per million (rpm): 20.9 rpm
[10]
  Log2 differential normalized TPM ratio compared to glucose: 2.1
  Log2 differential normalized TPM ratio compared to lactose: 0.9
  Transcripts per million (rpm): 13.7 rpm
LBA0505 Fructosidase, COG G
  Log2 differential normalized TPM ratio compared to glucose: 1.9
  Log2 differential normalized TPM ratio compared to lactose: 1
  Transcripts per million (rpm): 13.7 rpm
[11]
  Log2 differential normalized TPM ratio compared to glucose: 2.5
  Log2 differential normalized TPM ratio compared to lactose: 0.3
  Transcripts per million (rpm): 25.6 rpm
[12]
  Log2 differential normalized TPM ratio compared to glucose: 2
  Log2 differential normalized TPM ratio compared to lactose: 0.3
  Transcripts per million (rpm): 199.6 rpm
[13]
  Log2 differential normalized TPM ratio compared to glucose: 0.7
  Log2 differential normalized TPM ratio compared to lactose: −0.3
  Transcripts per million (rpm): 108.3 rpm
[14]
  Log2 differential normalized TPM ratio compared to glucose: 1.8
  Log2 differential normalized TPM ratio compared to lactose: −0.1
  Transcripts per million (rpm): 144.1 rpm
[15]
  Log2 differential normalized TPM ratio compared to glucose: 2
  Log2 differential normalized TPM ratio compared to lactose: 0.2
  Transcripts per million (rpm): 201.1 rpm
[16]
  Log2 differential normalized TPM ratio compared to glucose: 2.2
  Log2 differential normalized TPM ratio compared to lactose: 0.3
  Transcripts per million (rpm): 283.5 rpm
[17]
  Log2 differential normalized TPM ratio compared to glucose: 2.4
  Log2 differential normalized TPM ratio compared to lactose: 0.5
  Transcripts per million (rpm): 330.5 rpm
[18]
  Log2 differential normalized TPM ratio compared to glucose: 2.4
  Log2 differential normalized TPM ratio compared to lactose: 0.6
  Transcripts per million (rpm): 357.5 rpm
[19]
  Log2 differential normalized TPM ratio compared to glucose: 1.7
  Log2 differential normalized TPM ratio compared to lactose: 0
  Transcripts per million (rpm): 410.2 rpm
[20]
  Log2 differential normalized TPM ratio compared to glucose: 5.3
  Log2 differential normalized TPM ratio compared to lactose: 3.5
  Transcripts per million (rpm): 1214.5 rpm
LBA0725 PTS EII system, COG G
  Log2 differential normalized TPM ratio compared to glucose: 8.9
  Log2 differential normalized TPM ratio compared to lactose: 6.2
  Transcripts per million (rpm): 902.9 rpm
[21]
  Log2 differential normalized TPM ratio compared to glucose: 6.2
  Log2 differential normalized TPM ratio compared to lactose: 3.5
  Transcripts per million (rpm): 1529.5 rpm
[22]
  Log2 differential normalized TPM ratio compared to glucose: 0.9
  Log2 differential normalized TPM ratio compared to lactose: −0.2
  Transcripts per million (rpm): 28.6 rpm
[23]
  Log2 differential normalized TPM ratio compared to glucose: 1
  Log2 differential normalized TPM ratio compared to lactose: 0.6
  Transcripts per million (rpm): 25 rpm
[24]
  Log2 differential normalized TPM ratio compared to glucose: 2.4
  Log2 differential normalized TPM ratio compared to lactose: −0.5
  Transcripts per million (rpm): 551. 7 rpm
[25]
  Log2 differential normalized TPM ratio compared to glucose: 2.6
  Log2 differential normalized TPM ratio compared to lactose: −0.5
  Transcripts per million (rpm): 369.8 rpm
LBA0911 Aminopeptidase, COG E
  Log2 differential normalized TPM ratio compared to glucose: 1.2
  Log2 differential normalized TPM ratio compared to lactose: 0
  Transcripts per million (rpm): 3872 rpm
[26]
  Log2 differential normalized TPM ratio compared to glucose: 1.3
  Log2 differential normalized TPM ratio compared to lactose: 0.7
  Transcripts per million (rpm): 240.8 rpm
LBA1022 Arginase, COG E
  Log2 differential normalized TPM ratio compared to glucose: −0.6
  Log2 differential normalized TPM ratio compared to lactose: −0.8
  Transcripts per million (rpm): 175.5 rpm
LBA1055 Mutator protein, COG F
  Log2 differential normalized TPM ratio compared to glucose: −0.1
  Log2 differential normalized TPM ratio compared to lactose: 0.3
[27]
  Log2 differential normalized TPM ratio compared to glucose: 2.2
  Log2 differential normalized TPM ratio compared to lactose: 0.9
  Transcripts per million (rpm): 167.6 rpm
[28]
  Log2 differential normalized TPM ratio compared to glucose: 3.1
  Log2 differential normalized TPM ratio compared to lactose: 2
  Transcripts per million (rpm): 94 rpm
[29]
  Log2 differential normalized TPM ratio compared to glucose: 2.7
  Log2 differential normalized TPM ratio compared to lactose: 0.1
  Transcripts per million (rpm): 39 rpm
[30]
  Log2 differential normalized TPM ratio compared to glucose: 3.3
  Log2 differential normalized TPM ratio compared to lactose: −0.1
  Transcripts per million (rpm): 36 rpm
